The whole screen tested about 360,000 compounds, of which about 7,500 (2.1%) were called active. The inconclusive results got no clear call from the source; some entries with a clear call stand among them for comparison. The call rests on the fitted dose curve; in most records, active means well fitted inhibition curve with a large enough effect; inconclusive means small, poorly fitted or top-dose-only effect, or effect the other way; inactive means flat fitted curve, though single readings scatter. Where the call is inconclusive, the potency comes from a doubtful curve fit.
assay: Nrf2 qHTS screen for inhibitors; details: A549 ARE-Fluc reporter, luciferase luminescence, 18-24 h; activity change, negative = inhibition: at 46 µM (top of the series); further: nearly all actives have a fitted effect of over 60% in size
Summary of the method: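 Quantitative HTS in A549 cells stably bearing an antioxidant response element-firefly luciferase construct. Inhibition of Nrf2-driven transcription was scored by luminescence after 18-24 h of compound exposure at 37 °C.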
On the % scale 0 is the no-effect control and ±100 the full control effect; potency means the concentration at half of the fitted maximal effect.

Row | Structure (SMILES) | Potency | activity change, negative = inhibition
1 | CCOc1ccccc1C(=O)Nc1cccc2ccc(C)nc12 | inconclusive: 5.17 µM [activator, partial curve] | 
2 | CCOC(=O)c1cnc2ccccc2c1Nc1cccc(C(=O)O)c1 |  | inactive: 5.35%
3 | Cc1nc(/C=C/c2ccccc2)cc(/C=C/c2ccccc2)n1 |  | inactive: 0.752%
4 | N=c1sccn1CC(=O)Nc1cccc2ccccc12 |  | inactive: -10.8%
5 | O=C(NCCc1csc(-c2ccc(Cl)cc2)n1)c1ccco1 | inconclusive: 29.1 µM [falling, single point] | 
6 | CCCCC(CC)C(=O)Nc1cccc(SC)c1 (stereo not drawn) |  | inactive: 0.895%
7 | CC(C)c1ccc(-c2noc(SCC(=O)N3CCN(c4ccc(F)cc4)CC3)n2)cc1 | inconclusive: 29.1 µM [activator, single point] | 
8 | CCOc1ccc(OCc2ccc(C(=O)Nc3cc(OC)c(OC)c(OC)c3)o2)cc1 | inconclusive: 5.17 µM [activator, partial curve, poor fit] | 
9 | Cc1cc2c(C)c(C)c(=O)[nH]c2cc1N | inconclusive: 32.6 µM [falling, partial curve, poor fit] | 
10 | COC(=O)c1c(C(=O)OC)n(CCCN)c2ccc(C)cc12 | inconclusive: 0.13 µM [falling, full curve, poor fit] | 
11 | Cc1ccc(C)c(Nc2nn3c(=O)c4ccc(C(=O)NCCC5=CCCCC5)cc4nc3s2)c1 |  | inactive: -9.93%
12 | O=C(Nc1ccc2nc(-c3cccs3)[nH]c2c1)c1ccco1 | inconclusive: 17.8 µM [falling, single point] | 
13 | O=C(Cc1cccs1)Nc1nc(-c2ccc(F)cc2F)cs1 | inconclusive: 20.6 µM [falling, partial curve, poor fit] | 
14 | COc1ccc(CC(=O)NNC(=O)c2ccc(Br)s2)cc1OC | inconclusive: 9.2 µM [falling, partial curve, poor fit] | 
15 | CCOc1ccc(N/C=C/C(=O)c2ccc(OC)c(OC)c2)cc1 | inconclusive: 3.26 µM [activator, full curve, poor fit] | 
16 | CCCn1c(=N)n(CC(O)COc2cccc(C)c2)c2ccccc21 (stereo not drawn) |  | inactive: 1.32%
17 | O=C(COC(=O)c1ccc[nH]c1=O)NC1CCCc2ccccc21 (stereo not drawn) |  | inactive: -7.75%
18 | CCOC(=O)C1(Cc2ccccc2Cl)CCN(C(=O)CN2CCOC2=O)CC1 | inconclusive: 20.6 µM [activator, single point] | 
19 | COCC(=O)Nc1ncc(S(=O)(=O)c2ccc([N+](=O)[O-])cc2)s1 | inconclusive: 29.1 µM [falling, single point] | 
20 | CN(c1ccccc1)S(=O)(=O)c1ccc(C(=O)NCc2ccc(F)cc2)cc1 | inconclusive: 29.1 µM [falling, single point] | 
21 | Cc1ccc(C(=O)Nc2nc3nc(C)cc(=O)n3[nH]2)cc1 |  | inactive: 4.94%
22 | CCOC(=O)C1C(C(C)=O)=C(c2ccccc2)c2ccccc2N1S(=O)(=O)C(F)(F)F (stereo not drawn) |  | inactive: 2.59%
23 | CCC(C)(C)NC(=O)CN(C(=O)CCC(=O)Nc1nccs1)c1ccc2c(c1)OCCO2 | inconclusive: 20.6 µM [activator, partial curve, poor fit] | 

Row | Structure (SMILES) | Potency | activity change, negative = inhibition
24 | CCCc1ccc(C(=O)/C=C/N(C)C)cc1 | inconclusive: 6.51 µM [activator, single point] | 
25 | CC1CCCCC1Nc1ncnc2sccc12 (stereo not drawn) | inconclusive: 29.1 µM [falling, single point] | 
26 | CCOC(=O)c1c(C)[nH]c(C(=O)OCC(=O)c2ccccc2)c1C | inconclusive: 5.17 µM [activator, full curve] | 
27 | Cc1c(Br)c([N+](=O)[O-])nn1C(C)C(=O)Nc1ccc2c(c1)OCO2 (stereo not drawn) | inconclusive: 8.2 µM [falling, partial curve] | 
28 | COCCCNC(=O)c1[nH]c2ccccc2c1Sc1ccc(C)cc1 | inconclusive: 29.1 µM [falling, single point] | 
29 | NNC(=O)c1sc(-c2ccc(Cl)cc2)cc1N | inconclusive: 11.6 µM [activator, partial curve] | 
30 | CSc1ccc(-c2sc(Nc3ccccc3)n[n+]2-c2ccc(F)cc2)cc1 |  | inactive: -11.1%
31 | Nc1nc2ccccc2cc1-c1cccs1 | inconclusive: 23.1 µM [activator, partial curve] | 
32 | CC(=O)Nc1ccc(S[C@@H](CCN2CC[C@H](C(C)(C)C)CCC2=O)c2ccccc2)cc1 | inconclusive: 29.1 µM [falling, single point] | 
33 | Cc1nnc(NC(=O)CSc2nnc(CC(=O)Nc3ccccc3C)n2C)s1 | inconclusive: 32.6 µM [activator, partial curve, poor fit] | 
34 | Cc1cc(C(=O)Nc2ccc3c(c2)CCC3)c2ccccc2n1 | inconclusive: 29.1 µM [activator, partial curve, poor fit] | 
35 | CCS(=O)(=O)N1CCc2cc(C(=O)NCc3ccc(Cl)cc3)ccc21 |  | inactive: -25.5%
36 | COc1ccc(/C=C/C(=O)NCc2cccnc2)cc1 |  | inactive: 0.294%
37 | Cn1c(=O)c2c(ncn2CC(=O)OCC(=O)Nc2cc(Cl)ccc2C#N)n(C)c1=O | inconclusive: 29.1 µM [activator, single point] | 
38 | Cn1c(SCC(=O)N2CC(=O)Nc3ccccc32)nc2ccccc2c1=O | inconclusive: 8.2 µM [falling, partial curve, poor fit] | 
39 | CCOC(=O)/C(=N\Nc1ncnc2ccccc12)c1ccc(C)cc1 | inconclusive: 23.1 µM [activator, partial curve] | 
40 | COc1ccc(-c2noc(CN(C(=O)c3cccs3)C(C)C)n2)cc1 | inconclusive: 16.4 µM [falling, single point] | 
41 | Clc1ccc(C[n+]2cc(-c3ccccc3)n3c2CCCCC3)c(Cl)c1 | inconclusive: 2.59 µM [falling, full curve] | 
42 | COc1cc(C2CC(=O)c3c([nH]c(C(=O)OCc4ccc(C)cc4)c3C)C2)cc(OC)c1OC (stereo not drawn) | active: 2.31 µM | 
43 | Cc1ccc(CN(Cc2ccccn2)C(=O)Nc2ccc(C)c(C)c2)cc1 | inconclusive: 23.1 µM [falling, single point] | 
44 | CCOC(=O)c1ccccc1NC(=O)Cn1c(=O)n(CCC(=O)N2CCc3ccccc3C2)c(=O)c2ccccc21 |  | inactive: -17.5%
45 | COc1cc(NC(=O)c2cc(Cl)ccc2Cl)ccc1NC(=O)c1cc2ccccc2o1 | inconclusive: 6.51 µM [falling, single point] | 
46 | CCOC(=O)C1(CC2CCCCO2)CCN(Cc2nc3ccccc3nc2C)CC1 (stereo not drawn) | inconclusive: 4.61 µM [activator, full curve, poor fit] | 

Row | Structure (SMILES) | Potency | activity change, negative = inhibition
47 | O=C(CSc1nc2ccccc2c(=O)n1Cc1ccc(F)cc1)NCC1CCCO1 (stereo not drawn) |  | inactive: 6.13%
48 | O=C(Nc1cccc(O)c1)c1cc(-c2ccc3c(c2)OCO3)on1 | active: 14.6 µM | 
49 | O=C(CS(=O)(=O)Cc1ccccc1)Nc1nnc(C(F)(F)F)s1 | inconclusive: 9.2 µM [falling, partial curve, poor fit] | 
50 | CCOC(=O)C1=C(C)OC(N)=C(C#N)C1c1cc2cc(C)ccc2nc1N1CCCCC1 (stereo not drawn) |  | inactive: 7.09%
51 | CCC(=O)Nc1ccc(OCc2cc(C3Nc4ccccc4C(=O)N3Cc3ccccc3)ccc2OC)cc1 (stereo not drawn) | inconclusive: 4.11 µM [activator, partial curve, poor fit] | 
52 | Cc1ccc(NC(=O)COc2cccc(-n3cnnn3)c2)cc1S(=O)(=O)N1CCOCC1 | active: 23.1 µM | 
53 | Cc1ccc(CN2CCN(CCCn3cnc4c(OCc5ccccc5)ncnc43)CC2)cc1 | inconclusive: 25.9 µM [falling, partial curve, poor fit] | 
54 | CC(C)[C@H](NC(=O)c1ccc(C(C)(C)C)cc1)C(=O)N1CCN(Cc2ccc3c(c2)OCO3)CC1 | active: 20.6 µM | 
55 | O=C(O)CSc1nccc2ccccc12 | active: 16.4 µM | 
56 | COc1ccc2c(c1)C(C)=CC(C)(C)N2S(=O)(=O)c1ccc(NC(C)=O)cc1 | inconclusive: 16.4 µM [activator, partial curve, poor fit] | 
57 | CCCOc1ccc(C(=O)Nc2ccc3oc(-c4ccc5ccccc5c4)nc3c2)cc1 | inconclusive: 3.26 µM [activator, partial curve] | 
58 | CCN1CCN(Cc2ccc(NC(=O)c3ccc(C)c(NC(=O)c4csc(-c5ccncc5)n4)c3)cc2C(F)(F)F)CC1 |  | inactive: 7.62%
59 | CCOc1ccc(N(CC(=O)Nc2cccc(C)c2)S(C)(=O)=O)cc1 | inconclusive: 0.731 µM [activator, full curve, poor fit] | 
60 | Cc1c(C(=O)/C=C/c2cccs2)oc2ccc(F)cc12 | inconclusive: 9.2 µM [activator, partial curve, poor fit] | 
61 | Cn1nc(C(=O)NCCOc2ccccc2)c2ccccc2c1=O | inconclusive: 20.6 µM [falling, single point] | 
62 | CC(C)=C[C@H]1C[C@H](C)[C@H]2CC[C@H](C)c3c(O[C@@H]4OC[C@@H](O)[C@H](O)C4O)c(O)c(C)c1c32 (stereo partly drawn) |  | inactive: -16%
63 | O=C(Nc1nc(-c2cccs2)c(-c2ccccc2)s1)c1ccco1 | inconclusive: 20.6 µM [falling, partial curve] | 
64 | CN(C)c1ccc(-c2nnc(-c3ccccc3F)o2)cc1 | inconclusive: 0.651 µM [activator, full curve, poor fit] | 
65 | Cc1cc(N/N=C/c2ccc(O)cc2)nc(NS(=O)(=O)c2ccccc2)n1 | inconclusive: 23.1 µM [falling, partial curve, poor fit] | 
66 | Cc1ccccc1Cc1c(C)nc2nc(SCC(=O)NCCCN3CCCCC3)nn2c1C | inconclusive: 6.51 µM [activator, single point] | 
67 | CC(C)c1ccccc1NC(=S)NC(=O)C1CCCCC1 |  | inactive: -12.5%
68 | O=C(NCc1ccc2c(c1)OCO2)c1ccc(CS(=O)(=O)c2ccc(Br)cc2)o1 | inconclusive: 23.1 µM [falling, single point] | 

Exported as tab-separated lines: 17 of the compounds above
Row	Structure (SMILES)	Potency	activity change, negative = inhibition
9	Cc1cc2c(C)c(C)c(=O)[nH]c2cc1N	inconclusive: 32.6 µM [falling, partial curve, poor fit]	
10	COC(=O)c1c(C(=O)OC)n(CCCN)c2ccc(C)cc12	inconclusive: 0.13 µM [falling, full curve, poor fit]	
11	Cc1ccc(C)c(Nc2nn3c(=O)c4ccc(C(=O)NCCC5=CCCCC5)cc4nc3s2)c1		inactive: -9.93%
12	O=C(Nc1ccc2nc(-c3cccs3)[nH]c2c1)c1ccco1	inconclusive: 17.8 µM [falling, single point]	
13	O=C(Cc1cccs1)Nc1nc(-c2ccc(F)cc2F)cs1	inconclusive: 20.6 µM [falling, partial curve, poor fit]	
14	COc1ccc(CC(=O)NNC(=O)c2ccc(Br)s2)cc1OC	inconclusive: 9.2 µM [falling, partial curve, poor fit]	
15	CCOc1ccc(N/C=C/C(=O)c2ccc(OC)c(OC)c2)cc1	inconclusive: 3.26 µM [activator, full curve, poor fit]	
16	CCCn1c(=N)n(CC(O)COc2cccc(C)c2)c2ccccc21 (stereo not drawn)		inactive: 1.32%
17	O=C(COC(=O)c1ccc[nH]c1=O)NC1CCCc2ccccc21 (stereo not drawn)		inactive: -7.75%
18	CCOC(=O)C1(Cc2ccccc2Cl)CCN(C(=O)CN2CCOC2=O)CC1	inconclusive: 20.6 µM [activator, single point]	
19	COCC(=O)Nc1ncc(S(=O)(=O)c2ccc([N+](=O)[O-])cc2)s1	inconclusive: 29.1 µM [falling, single point]	
20	CN(c1ccccc1)S(=O)(=O)c1ccc(C(=O)NCc2ccc(F)cc2)cc1	inconclusive: 29.1 µM [falling, single point]	
21	Cc1ccc(C(=O)Nc2nc3nc(C)cc(=O)n3[nH]2)cc1		inactive: 4.94%
22	CCOC(=O)C1C(C(C)=O)=C(c2ccccc2)c2ccccc2N1S(=O)(=O)C(F)(F)F (stereo not drawn)		inactive: 2.59%
23	CCC(C)(C)NC(=O)CN(C(=O)CCC(=O)Nc1nccs1)c1ccc2c(c1)OCCO2	inconclusive: 20.6 µM [activator, partial curve, poor fit]	
24	CCCc1ccc(C(=O)/C=C/N(C)C)cc1	inconclusive: 6.51 µM [activator, single point]	
25	CC1CCCCC1Nc1ncnc2sccc12 (stereo not drawn)	inconclusive: 29.1 µM [falling, single point]	
